Source: PubChem BioAssay AID330 (DTP/NCI, 2004)
The list is a part of this screen's results and no random one: it is rich in T/C values a quarter to a half above the control, in often repeated tests (any T/C) and in doses without a T/C. Further doses and runs are listed elsewhere. T/C is the treated group as % of the vehicle group. Some doses have a count of surviving animals in place of a T/C: the source holds a T/C of zero for them, seemingly a mark for toxic or unscored doses. Some doses without a T/C left all or most animals alive at the check, yet need not have been tolerated: survival well below the control is almost never listed, so the zero probably covers shortened survival too. Counts of survivors are from the toxicity check (mostly the fifth day) where no day follows; animals may have died later. Schedule codes are those of the source, read here as Q, the interval in days (D) or hours (H), X, the number of doses. Where survival is the endpoint, the PubChem record calls one and a half times the control and up active, and a quarter to a half above the control has no call in these data; cut-offs in other NCI protocols can differ. Some entries hold several experiments; their values stand side by side, smallest first.

Test system: P388 leukemia ip, CD2F1 mice, survival T/C
Assay: NCI In Vivo Anticancer Drug Screen. Data for tumor model P388 Leukemia (intraperitoneal) in CD2F1 (CDF1) mice
Details: T/C endpoint: median survival time, higher T/C = longer survival
[1] = dose: 1.0 mg/kg/injection, schedule: Q01DX009 (ip), vehicle: saline + alcohol
[2] = dose: 50.0 mg/kg/injection, schedule: Q01DX009 (ip), vehicle: saline
[3] = dose: 100.0 mg/kg/injection, schedule: Q01DX009 (ip), vehicle: saline
[4] = dose: 200.0 mg/kg/injection, schedule: Q01DX009 (ip), vehicle: saline
[5] = dose: 100.0 mg/kg/injection, schedule: Q01DX009 (ip), vehicle: saline with Tween-80
[6] = dose: 100.0 mg/kg/injection, schedule: Q01DX005 (ip), vehicle: Klucel (hydroxypropylcellulose) (HPC)
[7] = dose: 200.0 mg/kg/injection, schedule: Q01DX005 (ip), vehicle: Klucel (hydroxypropylcellulose) (HPC)

COC(=O)[C@@]12OC[C@]34[C@H]([C@@H](O)[C@@H]1O)[C@@]1(C)CC(=O)C(O)=C(C)[C@@H]1C[C@H]3OC(=O)[C@H](OC(=O)/C=C(\C)C1(C)CO1)[C@@H]24 (stereo not given in full)
survivor count (dose: 0.25 mg/kg/injection, schedule: Q01DX009 (ip), vehicle: saline + alcohol): 3 of 6
survivor count (dose: 0.5 mg/kg/injection, schedule: Q01DX009 (ip), vehicle: saline + alcohol): 0 of 6
T/C [1]: 126 % of control
survivor count [1]: 6 of 6
survivor count (dose: 2.0 mg/kg/injection, schedule: Q01DX009 (ip), vehicle: saline + alcohol): 2 of 6
survivor count (dose: 4.0 mg/kg/injection, schedule: Q01DX009 (ip), vehicle: saline + alcohol): 0 of 6

O/N=C/C=N/O.O/N=C/C=N/O.[Ni]
survivor count (dose: 12.5 mg/kg/injection, schedule: Q01DX009 (ip), vehicle: saline): 0 of 6
survivor count (dose: 25.0 mg/kg/injection, schedule: Q01DX009 (ip), vehicle: saline): 2 of 6
survivor count [2]: 0 of 6
survivor count [3]: 0 of 6
survivor count [4]: 0 of 6

CCOP(=S)(N1CC1C)N1CC1C (stereo not given)
T/C [5]: 130 % of control
T/C (dose: 150.0 mg/kg/injection, schedule: Q04DX003 (ip), vehicle: saline with Tween-80): 131 % of control
survivor count (dose: 200.0 mg/kg/injection, schedule: Q01DX009 (ip), vehicle: saline with Tween-80): 5 of 6

CNCC(=O)Nc1ccc2c(c1)C(=O)c1ccc(NC(=O)CNC)cc1C2=O
survivor count (dose: 189.5 mg/kg/injection, schedule: Q01DX001 (ip), vehicle: suspension in saline): 0 of 6
survivor count (dose: 379.0 mg/kg/injection, schedule: Q01DX001 (ip), vehicle: suspension in saline): 1 of 6

O=C(O[C@H]1CCN2C[C@H]3C[C@H](CN4C(=O)CCC[C@H]34)[C@@H]2C1)c1ccc(O)cc1
survivor count (dose: 50.0 mg/kg/injection, schedule: Q01DX005 (ip), vehicle: Klucel (hydroxypropylcellulose) (HPC)): 1 of 5
survivor count [6]: 2 of 5
survivor count [7]: 0 of 5

COC(=O)[C@@H]1c2cc3c(c(O)c2[C@@H](OC)C[C@@]1(C)O)C(=O)c1c(O)cc2c(c1C3=O)OC1O[C@@]2(C)[C@H](O)[C@@H](N(C)C)[C@@H]1O
T/C (dose: 6.25 mg/kg/injection, schedule: Q01DX009 (ip), vehicle: other): 146 % of control
T/C (dose: 6.25 mg/kg/injection, schedule: Q01DX009 (ip), vehicle: saline): 130 % of control
T/C (dose: 12.5 mg/kg/injection, schedule: Q04DX003 (ip), vehicle: other): 129 % of control
T/C (dose: 12.5 mg/kg/injection, schedule: Q04DX003 (ip), vehicle: saline): 131 % of control
T/C (dose: 25.0 mg/kg/injection, schedule: Q04DX003 (ip), vehicle: other): 135 % of control
T/C (dose: 25.0 mg/kg/injection, schedule: Q04DX003 (ip), vehicle: saline): 135 % of control
survivor count (dose: 100.0 mg/kg/injection, schedule: Q01DX010 (ip), vehicle: saline): 1 of 6
survivor count (dose: 200.0 mg/kg/injection, schedule: Q04DX003 (ip), vehicle: other): 5 of 6

C=COS(=O)O
survivor count [2]: 0 of 6
survivor count [3]: 0 of 6
survivor count [4]: 0 of 6

O=C(N=Nc1c(Cl)c(O)c2ccccc2c1O)C(=O)Nc1cccc(C(F)(F)F)c1
survivor count [6]: 4 of 6
survivor count [7]: 0 of 6

CCCCCCCCCCCCCCCCCSCc1ccc(Nc2ccccc2)cc1
T/C [5]: 131 % of control

COC(=O)C1(OC(=O)CCC(=O)O)C(=O)NC2=C1C(=O)c1ccccc1C2=O (stereo not given)
T/C (dose: 100.0 mg/kg/injection, schedule: Q01DX005 (ip), vehicle: saline with Tween-80): 126 and 129 % of control
survivor count (dose: 400.0 mg/kg/injection, schedule: Q01DX005 (ip), vehicle: saline with Tween-80): 3 of 6
